For at least one entry, the source does not settle the construct or the ends of the probe. Where a protein sequence is shown, tags need not be part of it.
Target: T1, AtPDF2-HD(L43R)-his L104R (Arabidopsis thaliana) (UniProt Q93V99)
T1 sequence (looked up, limits assumed): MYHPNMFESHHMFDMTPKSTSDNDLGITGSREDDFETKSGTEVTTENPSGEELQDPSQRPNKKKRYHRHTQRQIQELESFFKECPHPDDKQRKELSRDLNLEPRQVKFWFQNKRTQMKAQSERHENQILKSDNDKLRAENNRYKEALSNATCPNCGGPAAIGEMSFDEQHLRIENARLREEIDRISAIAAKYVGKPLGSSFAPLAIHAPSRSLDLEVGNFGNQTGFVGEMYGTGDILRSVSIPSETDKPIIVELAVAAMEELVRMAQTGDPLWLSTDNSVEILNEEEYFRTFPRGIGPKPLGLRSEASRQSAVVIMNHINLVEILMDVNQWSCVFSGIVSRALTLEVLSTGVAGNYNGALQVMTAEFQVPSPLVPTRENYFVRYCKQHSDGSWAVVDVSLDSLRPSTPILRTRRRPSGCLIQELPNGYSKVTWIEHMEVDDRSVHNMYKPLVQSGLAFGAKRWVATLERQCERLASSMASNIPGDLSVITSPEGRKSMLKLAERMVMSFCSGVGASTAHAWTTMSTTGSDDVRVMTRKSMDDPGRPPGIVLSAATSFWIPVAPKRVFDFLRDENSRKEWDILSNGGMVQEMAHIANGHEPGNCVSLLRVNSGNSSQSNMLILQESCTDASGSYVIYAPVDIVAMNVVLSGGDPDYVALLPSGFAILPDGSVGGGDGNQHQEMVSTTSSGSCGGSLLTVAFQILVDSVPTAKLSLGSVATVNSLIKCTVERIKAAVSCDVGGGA
Experiment: EMSA
Conditions: binding significantly enhanced relative to wild-type PDF2; Chemiluminescent EMSA kit (Beyotime); pH and temperature not stated; competitor = unlabeled S1; recombinant protein; protein details: His (pET-30a); label: biotin

TAATTAATTAATTAATTAATTAATTAATTAAT (double strand) [biotin-L1 box core tandem repeat probe]
binding result: binds

Reference: paper PMC12652440
